{"sequences": {"note": "By UniProt entry, the sequences of proteins in these tests, tags left out. Where a name states a change or a piece, a line headed by the entry shows the natural chain unless it says otherwise.", "UniProt Q9NZ08": "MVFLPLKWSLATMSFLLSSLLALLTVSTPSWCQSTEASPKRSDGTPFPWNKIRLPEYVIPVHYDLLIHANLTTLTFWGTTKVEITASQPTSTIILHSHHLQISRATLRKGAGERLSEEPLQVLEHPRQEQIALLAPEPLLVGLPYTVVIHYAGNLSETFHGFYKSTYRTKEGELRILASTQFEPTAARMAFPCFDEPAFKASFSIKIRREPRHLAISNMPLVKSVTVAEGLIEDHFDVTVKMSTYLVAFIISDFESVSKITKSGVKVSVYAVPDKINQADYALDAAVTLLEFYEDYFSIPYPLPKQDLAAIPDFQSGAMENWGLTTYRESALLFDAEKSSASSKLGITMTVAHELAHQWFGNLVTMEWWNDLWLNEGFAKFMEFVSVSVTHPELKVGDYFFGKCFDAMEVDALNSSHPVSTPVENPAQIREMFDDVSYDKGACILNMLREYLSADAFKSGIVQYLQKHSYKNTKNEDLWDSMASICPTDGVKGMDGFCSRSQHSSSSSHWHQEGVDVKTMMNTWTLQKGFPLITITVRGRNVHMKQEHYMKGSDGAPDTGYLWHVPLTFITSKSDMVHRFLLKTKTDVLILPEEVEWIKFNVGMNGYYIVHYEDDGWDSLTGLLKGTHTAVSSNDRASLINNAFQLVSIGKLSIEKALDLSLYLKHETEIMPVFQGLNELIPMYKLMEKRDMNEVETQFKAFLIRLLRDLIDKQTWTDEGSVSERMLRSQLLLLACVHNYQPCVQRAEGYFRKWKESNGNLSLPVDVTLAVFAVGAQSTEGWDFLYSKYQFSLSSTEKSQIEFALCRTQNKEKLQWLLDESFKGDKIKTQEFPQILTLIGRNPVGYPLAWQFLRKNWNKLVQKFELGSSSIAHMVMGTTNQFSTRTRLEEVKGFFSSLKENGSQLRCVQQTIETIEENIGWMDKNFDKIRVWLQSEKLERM"}, "source": "PubChem BioAssay AID743317", "about": "(Broad Institute, 2014)", "note": "This list was built around the results that the source calls inconclusive (neither active nor inactive); the mix of calls is not that of the screen. The source made the active and inactive calls.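 The calls were made as follows: active = fitted curve reaches 40% activation at or below the top valid dose, and every replicate test is called active; inconclusive = replicate tests disagree, some active and some inactive; inactive = all replicate tests inactive, including activity in the wrong direction.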"}
{"target": "Endoplasmic reticulum aminopeptidase 1 (Homo sapiens) (UniProt Q9NZ08)", "experiment": "ERAP1 aminopeptidase activity change, dose response, biochemical, fluorescence, cherry-pick (AID 743317)", "conditions": "ERAP1 enzyme, Leu-AMC fluorescence, 60 min; at 11 µM (top of the series) unless noted"}
{"smiles": "CC(=O)N1[C@@H]2c3ccc(/C=C/c4ccccc4)c(=O)n3C[C@H]1[C@H](CO)[C@H]2C(=O)N1CCOCC1", "activity increase (activation)": "inconclusive: -111%"}
{"smiles": "COc1ccc2c3c([nH]c2c1)[C@H](CO)N(CC1CC1)CC31CCN(C(=O)c2ccccc2F)CC1", "activity increase (activation)": "inconclusive: 30.8%"}
{"smiles": "COc1ccc(-c2cc3ccc(O)cc3oc2=O)cc1OC", "activity increase (activation)": "inactive: -92.7%"}
{"smiles": "O=C(NCc1ccccc1)[C@@H]1[C@@H](CO)[C@@H]2Cn3c(ccc(/C=C/c4ccccc4)c3=O)[C@H]1N2CC1CC1", "activity increase (activation)": "inconclusive: -40.8%"}
{"smiles": "C/C(=N\\NC(=O)CC#N)c1cc2ccc(O)cc2oc1=O", "activity increase (activation)": "inactive: -67.1%"}
{"smiles": "CCNC(=O)[C@H]1[C@H](CO)[C@H]2Cn3c(ccc(/C=C/c4ccccc4)c3=O)[C@@H]1N2C(=O)C1CCCC1", "activity increase (activation)": "inconclusive: -58.3%"}
{"smiles": "O=C(C[C@@H]1C=C[C@H](NC(=O)Nc2cccc(F)c2)[C@H](CO)O1)NCC1CCCCC1", "activity increase (activation)": "inconclusive: 59.7% [at 12 µM]"}
{"smiles": "C[C@H](CO)N1C[C@H](C)[C@H](CN(C)CC2CCCCC2)Oc2ncc(-c3ccc(F)cc3)cc2C1=O", "activity increase (activation)": "inconclusive: 36.6%"}
{"smiles": "CC(=O)N1[C@@H]2Cn3c(ccc(/C=C/c4ccccc4)c3=O)[C@H]1[C@@H](C(=O)NCC1CC1)[C@@H]2CO", "activity increase (activation)": "inconclusive: -60.8%"}
{"smiles": "COc1ccc2c3c([nH]c2c1)[C@H](CO)N(Cc1cc(F)ccc1F)CC31CN(C)C1", "activity increase (activation)": "inconclusive: -58.8%"}
{"smiles": "COc1ccc2c3c([nH]c2c1)[C@H](CO)NCC31CN(Cc2cc(F)ccc2F)C1", "activity increase (activation)": "inconclusive: 19.8%"}
